One assay addresses ATP5A-HA (UniProt P25705). Briefly: co-IP; HEK293T cells expressing ATP5A-HA with DDIT4L-myc or its deletion mutants; precipitated with anti-HA antibody, myc detected; n = 3.
In assay [1] the target is T1, DNA damage-inducible transcript 4-like (DDIT4L) (UniProt Q96D03).
T1 sequence: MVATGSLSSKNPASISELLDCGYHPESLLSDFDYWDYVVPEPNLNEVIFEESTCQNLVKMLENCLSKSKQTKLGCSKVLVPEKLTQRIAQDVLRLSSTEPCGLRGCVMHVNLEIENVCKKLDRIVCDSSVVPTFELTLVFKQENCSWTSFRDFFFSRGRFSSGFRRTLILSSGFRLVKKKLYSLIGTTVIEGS
Nature of the assay: proximity ligation; in HEK293 cells.

Chains of the proteins cited; added tags and fusions are not shown. Residues count along the entry.
UniProt P25705, residues 44-553: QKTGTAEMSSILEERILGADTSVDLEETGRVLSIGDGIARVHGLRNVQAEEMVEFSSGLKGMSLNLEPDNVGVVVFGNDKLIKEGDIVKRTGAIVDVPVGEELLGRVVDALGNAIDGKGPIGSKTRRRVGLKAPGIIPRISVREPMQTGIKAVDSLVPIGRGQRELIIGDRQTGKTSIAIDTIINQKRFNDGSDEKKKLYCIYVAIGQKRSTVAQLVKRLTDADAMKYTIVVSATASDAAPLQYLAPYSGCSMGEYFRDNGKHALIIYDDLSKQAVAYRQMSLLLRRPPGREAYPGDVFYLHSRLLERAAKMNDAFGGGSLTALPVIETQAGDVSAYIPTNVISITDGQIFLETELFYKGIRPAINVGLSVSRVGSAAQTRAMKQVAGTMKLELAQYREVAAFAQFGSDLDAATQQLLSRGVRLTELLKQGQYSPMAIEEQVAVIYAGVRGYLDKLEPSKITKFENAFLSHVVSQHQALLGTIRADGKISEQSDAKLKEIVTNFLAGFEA

In assay [2] the target is T2, DDIT4L-myc (UniProt Q96D03).
T2 sequence: T1 sequence
Nature of the assay: co-IP; HEK293 cells expressing TOM40-HA with DDIT4L-myc or its deletion mutants; precipitated with anti-myc antibody, HA detected; n = 3.

A further assay addresses T3, DDIT4LΔ2-myc (UniProt Q96D03).
T3 sequence: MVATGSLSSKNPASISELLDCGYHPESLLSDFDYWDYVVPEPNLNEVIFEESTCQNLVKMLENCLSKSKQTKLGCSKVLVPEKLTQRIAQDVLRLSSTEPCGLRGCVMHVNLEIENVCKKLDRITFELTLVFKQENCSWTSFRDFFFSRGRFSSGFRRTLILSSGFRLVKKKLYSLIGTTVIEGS
The description is as above.

The next assay deals with T4, DDIT4LΔ3-myc (UniProt Q96D03).
T4 sequence: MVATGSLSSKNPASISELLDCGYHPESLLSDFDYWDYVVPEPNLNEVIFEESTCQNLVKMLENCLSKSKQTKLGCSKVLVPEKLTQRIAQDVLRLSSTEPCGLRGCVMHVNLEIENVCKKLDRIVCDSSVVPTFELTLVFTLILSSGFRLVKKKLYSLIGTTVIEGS
The description is as above.

For another assay, the target named is T5, DDIT4LΔ1-myc (UniProt Q96D03).
T5 sequence: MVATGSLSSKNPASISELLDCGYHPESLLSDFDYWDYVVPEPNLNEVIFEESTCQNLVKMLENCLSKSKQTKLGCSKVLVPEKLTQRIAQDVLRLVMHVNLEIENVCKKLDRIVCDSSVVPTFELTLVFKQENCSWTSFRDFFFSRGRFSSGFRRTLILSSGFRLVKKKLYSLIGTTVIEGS
Described as above.

Assay [3] deals with T2, DDIT4L-myc. Nature of the assay: co-IP; GBM primary cells (hGBM11879) co-expressing TOM40-HA and DDIT4L-myc; precipitated with anti-myc antibody, HA detected; n = 3.

The source of these data is PMC13571239.

These are yes or no findings as the source states them, for the method shown. Binding seen in cells or lysates may run through a third protein. Some binding calls cover weakened binding; strength is not graded here. For some of these results: Sequences can lack the tags named with a protein.

B1: DDIT4L-myc (protein, UniProt Q96D03 1-193)
chain: T1 sequence
B1: the binding entry with ATP5A-HA was “binds”.

B2: DDIT4LΔ3-myc (protein, UniProt Q96D03)
chain: T4 sequence
In the case of B2, in the assay with ATP5A-HA, the binding result is recorded as “binds”.

B3: DDIT4LΔ1-myc (protein, UniProt Q96D03)
chain: T5 sequence
As to B3, the binding result with ATP5A-HA is given as “binds”.

B4: DDIT4LΔ2-myc (protein, UniProt Q96D03)
chain: T3 sequence
For the molecule B4, the binding entry with ATP5A-HA is “binds”.

B5: TOM40 (protein, UniProt O96008 1-361)
chain: MGNVLAASSPPAGPPPPPAPALVGLPPPPPSPPGFTLPPLGGSLGAGTSTSRSSERTPGAATASASGAAEDGACGCLPNPGTFEECHRKCKELFPIQMEGVKLTVNKGLSNHFQVNHTVALSTIGESNYHFGVTYVGTKQLSPTEAFPVLVGDMDNSGSLNAQVIHQLGPGLRSKMAIQTQQSKFVNWQVDGEYRGSDFTAAVTLGNPDVLVGSGILVAHYLQSITPCLALGGELVYHRRPGEEGTVMSLAGKYTLNNWLATVTLGQAGMHATYYHKASDQLQVGVEFEASTRMQDTSVSFGYQLDLPKANLLFKGSVDSNWIVGATLEKKLPPLPLTLALGAFLNHRKNKFQCGFGLTIG
B5: the binding entry in assay [1] is reported as “binds”.

B6: TOM40-HA (protein, UniProt O96008 1-361)
chain: B5 chain
Regarding B6, the binding result with DDIT4L-myc [2], in the assay with DDIT4LΔ2-myc, with DDIT4LΔ3-myc, in the assay with DDIT4LΔ1-myc and with DDIT4L-myc [3] was “binds” throughout.
